Values of other authors as cited in patent US10457740B1, “Methods and compositions for treating cancer using P2RX2 inhibitors” (Flagship Pioneering Innovations V, Inc., priority 2018, dated 2019).
Some of these results come from one statement about several compounds together. At least one compound was matched to its structure with a doubt left.

test system: P2RX2; details: P2RX2-specific inhibitors

Which IC50 does the source give for `CCc1cccc(Nc2cc(S(=O)(=O)O)c(N)c3c2C(=O)c2ccccc2C3=O)c1` [CHEMBL1671993] here?
Its IC50 is under 10 µM.

Which IC50 does the source give for `COc1cccc(Nc2cc(S(=O)(=O)O)c(N)c3c2C(=O)c2ccccc2C3=O)c1` [CHEMBL1671995] here?
The IC50 was under 10 µM.

Which IC50 does the source give for `COc1cc(Nc2cc(S(=O)(=O)O)c(N)c3c2C(=O)c2ccccc2C3=O)cc(OC)c1` [CHEMBL1671996] here?
Its IC50 is under 10 µM.

For `Nc1c(S(=O)(=O)O)cc(Nc2cccc(F)c2)c2c1C(=O)c1ccccc1C2=O` [CHEMBL1671997], which IC50 is on record?
The IC50 was under 10 µM.

Which IC50 does the source give for `Nc1c(S(=O)(=O)O)cc(Nc2cccc(Br)c2)c2c1C(=O)c1ccccc1C2=O` [CHEMBL1672098] here?
The IC50 was under 10 µM.

With `Nc1c(S(=O)(=O)O)cc(Nc2cc(F)cc(F)c2)c2c1C(=O)c1ccccc1C2=O` [CHEMBL1672099] as the compound, how does the IC50 read?
Its IC50 is under 10 µM.

With `Nc1c(S(=O)(=O)O)cc(Nc2ccc(O)c(C(=O)O)c2)c2c1C(=O)c1ccccc1C2=O` [CHEMBL1672102] as the compound, how does the IC50 read?
Its IC50 is under 10 µM.

Which IC50 does the source give for `Cc1c(N)cccc1Nc1cc(S(=O)(=O)O)c(N)c2c1C(=O)c1ccccc1C2=O` [CHEMBL1672103] here?
Its IC50 is under 10 µM.

Which IC50 does the source give for `Nc1c(S(=O)(=O)O)cc(Nc2cccc(Nc3nc(Cl)nc(Cl)n3)c2)c2c1C(=O)c1ccccc1C2=O` [CHEMBL1672105] here?
The IC50 was under 10 µM.

Which IC50 does the source give for `Nc1c(S(=O)(=O)O)cc(Nc2ccc(Nc3nc(=O)[nH]c(=O)[nH]3)cc2)c2c1C(=O)c1ccccc1C2=O` [CHEMBL1672106] here?
Its IC50 is under 10 µM.

With `Nc1c(S(=O)(=O)O)cc(Nc2ccc(S(=O)(=O)O)c(Nc3nc(=O)[nH]c(=O)[nH]3)c2)c2c1C(=O)c1ccccc1C2=O` [CHEMBL1672107] as the compound, how does the IC50 read?
The IC50 was under 10 µM.
